Assay results reported in article PMC9636212.
Results are given in words; binding and its absence hold for the method and conditions named. In cells and extracts the contact can be indirect. Some results given as binding are weak or reduced against the parent protein; the word gives no strength.

The chains behind the UniProt entries cited, without tags or fusion partners.
UniProt Q01147: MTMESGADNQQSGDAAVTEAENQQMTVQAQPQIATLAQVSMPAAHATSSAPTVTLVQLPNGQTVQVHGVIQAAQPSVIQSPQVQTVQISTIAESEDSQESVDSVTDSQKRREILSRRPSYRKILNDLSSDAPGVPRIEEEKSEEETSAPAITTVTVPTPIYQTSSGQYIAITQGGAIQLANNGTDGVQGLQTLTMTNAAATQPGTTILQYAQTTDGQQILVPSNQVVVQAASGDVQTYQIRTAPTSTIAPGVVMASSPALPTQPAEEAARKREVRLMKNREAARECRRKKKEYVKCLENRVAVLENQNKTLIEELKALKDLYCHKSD
UniProt P45481: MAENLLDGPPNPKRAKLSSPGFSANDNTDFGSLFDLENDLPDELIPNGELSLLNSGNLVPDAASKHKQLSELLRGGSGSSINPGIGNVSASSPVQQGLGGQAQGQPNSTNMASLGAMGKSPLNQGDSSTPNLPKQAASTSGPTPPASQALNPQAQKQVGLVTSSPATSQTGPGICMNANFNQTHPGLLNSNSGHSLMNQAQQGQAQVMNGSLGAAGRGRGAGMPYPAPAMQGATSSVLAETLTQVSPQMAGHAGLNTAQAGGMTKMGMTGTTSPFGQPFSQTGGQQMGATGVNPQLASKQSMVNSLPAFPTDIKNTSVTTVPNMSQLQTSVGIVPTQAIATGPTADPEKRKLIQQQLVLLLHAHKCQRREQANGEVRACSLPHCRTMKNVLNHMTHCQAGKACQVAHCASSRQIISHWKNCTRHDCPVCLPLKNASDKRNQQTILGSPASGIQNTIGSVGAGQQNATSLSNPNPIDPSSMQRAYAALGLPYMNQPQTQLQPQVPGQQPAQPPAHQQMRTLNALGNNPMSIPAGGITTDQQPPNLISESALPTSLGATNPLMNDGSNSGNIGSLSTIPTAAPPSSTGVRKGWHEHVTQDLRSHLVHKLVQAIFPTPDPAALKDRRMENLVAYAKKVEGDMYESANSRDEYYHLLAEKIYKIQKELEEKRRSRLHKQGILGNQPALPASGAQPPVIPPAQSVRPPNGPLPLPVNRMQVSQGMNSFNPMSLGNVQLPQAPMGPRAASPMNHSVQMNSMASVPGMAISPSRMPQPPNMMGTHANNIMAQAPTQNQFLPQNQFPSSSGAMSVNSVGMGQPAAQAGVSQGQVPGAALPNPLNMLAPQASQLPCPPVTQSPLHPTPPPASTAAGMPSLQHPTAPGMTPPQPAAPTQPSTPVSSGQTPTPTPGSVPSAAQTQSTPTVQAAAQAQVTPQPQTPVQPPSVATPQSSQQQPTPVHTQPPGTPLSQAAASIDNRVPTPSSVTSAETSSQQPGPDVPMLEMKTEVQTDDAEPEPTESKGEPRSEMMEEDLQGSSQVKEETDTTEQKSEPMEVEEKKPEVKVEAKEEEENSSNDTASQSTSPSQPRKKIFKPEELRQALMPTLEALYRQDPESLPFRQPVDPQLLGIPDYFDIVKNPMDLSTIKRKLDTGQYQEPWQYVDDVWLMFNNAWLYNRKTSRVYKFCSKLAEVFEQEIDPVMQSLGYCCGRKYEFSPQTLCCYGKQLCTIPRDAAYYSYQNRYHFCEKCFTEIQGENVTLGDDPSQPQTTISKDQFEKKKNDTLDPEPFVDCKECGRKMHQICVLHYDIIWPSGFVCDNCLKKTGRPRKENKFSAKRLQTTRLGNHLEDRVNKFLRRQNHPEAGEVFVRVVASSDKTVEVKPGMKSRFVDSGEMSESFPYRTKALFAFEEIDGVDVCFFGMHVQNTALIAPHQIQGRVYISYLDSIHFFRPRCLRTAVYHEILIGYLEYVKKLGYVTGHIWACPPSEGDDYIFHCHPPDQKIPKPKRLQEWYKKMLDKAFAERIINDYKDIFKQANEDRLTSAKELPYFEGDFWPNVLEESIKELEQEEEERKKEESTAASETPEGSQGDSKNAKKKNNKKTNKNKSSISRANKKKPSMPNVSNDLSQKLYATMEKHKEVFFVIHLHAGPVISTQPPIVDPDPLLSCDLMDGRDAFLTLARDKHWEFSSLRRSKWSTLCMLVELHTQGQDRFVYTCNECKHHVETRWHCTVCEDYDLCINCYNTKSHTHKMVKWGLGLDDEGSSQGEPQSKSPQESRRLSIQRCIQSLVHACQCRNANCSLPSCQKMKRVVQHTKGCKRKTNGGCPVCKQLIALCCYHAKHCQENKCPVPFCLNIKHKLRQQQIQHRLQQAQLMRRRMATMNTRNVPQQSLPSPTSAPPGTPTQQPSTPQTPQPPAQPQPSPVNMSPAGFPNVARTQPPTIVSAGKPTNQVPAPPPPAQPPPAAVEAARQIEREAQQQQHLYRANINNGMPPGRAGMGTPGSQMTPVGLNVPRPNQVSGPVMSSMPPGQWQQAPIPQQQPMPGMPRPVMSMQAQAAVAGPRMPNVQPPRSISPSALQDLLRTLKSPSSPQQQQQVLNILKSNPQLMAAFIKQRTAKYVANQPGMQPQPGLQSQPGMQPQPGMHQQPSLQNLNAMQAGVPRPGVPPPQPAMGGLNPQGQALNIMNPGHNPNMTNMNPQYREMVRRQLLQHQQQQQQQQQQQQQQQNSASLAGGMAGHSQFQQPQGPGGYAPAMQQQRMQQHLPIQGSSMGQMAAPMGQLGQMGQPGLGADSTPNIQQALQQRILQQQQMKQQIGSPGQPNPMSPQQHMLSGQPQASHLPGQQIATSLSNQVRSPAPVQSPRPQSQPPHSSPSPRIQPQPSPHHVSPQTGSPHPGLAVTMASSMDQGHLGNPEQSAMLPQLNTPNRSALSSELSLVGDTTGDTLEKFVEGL
UniProt P42227: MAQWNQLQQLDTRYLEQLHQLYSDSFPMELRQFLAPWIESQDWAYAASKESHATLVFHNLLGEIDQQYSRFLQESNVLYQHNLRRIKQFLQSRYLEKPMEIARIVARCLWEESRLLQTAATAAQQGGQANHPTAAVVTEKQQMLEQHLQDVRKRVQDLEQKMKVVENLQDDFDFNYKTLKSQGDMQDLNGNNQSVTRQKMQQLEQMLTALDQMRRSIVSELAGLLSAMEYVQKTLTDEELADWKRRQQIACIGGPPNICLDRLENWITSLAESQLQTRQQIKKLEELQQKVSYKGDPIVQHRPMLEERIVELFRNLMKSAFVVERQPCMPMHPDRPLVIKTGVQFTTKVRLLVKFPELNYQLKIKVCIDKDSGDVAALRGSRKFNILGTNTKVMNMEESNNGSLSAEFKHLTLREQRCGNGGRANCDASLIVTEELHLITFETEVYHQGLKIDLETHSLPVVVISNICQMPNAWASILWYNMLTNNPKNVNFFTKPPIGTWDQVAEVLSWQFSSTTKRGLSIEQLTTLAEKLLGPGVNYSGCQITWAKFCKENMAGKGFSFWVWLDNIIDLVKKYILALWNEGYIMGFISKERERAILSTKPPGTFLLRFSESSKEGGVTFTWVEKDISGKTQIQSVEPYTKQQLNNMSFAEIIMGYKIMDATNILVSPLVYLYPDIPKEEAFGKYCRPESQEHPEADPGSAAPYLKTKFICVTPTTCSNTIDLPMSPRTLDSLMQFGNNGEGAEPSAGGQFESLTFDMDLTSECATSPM

Columns and labels:
Assay in all cases: co-IP; endogenous proteins in NP-40 lysates of Ocy, 48 h after Pam3CSK4 or PBS stimulation; 300 µg total protein with 1 µg anti-CREB, anti-CBP or anti-STAT3 antibody at 4 °C overnight, protein A/G-Plus-Agarose, three washes with lysis buffer, Western blotting for FBXL19 or PDLIM2; Pam3CSK4 decreased the complex formation
[1] = target: cAMP responsive element binding protein (mouse (endogenous in osteocyte-enriched calvarial cells)) (UniProt Q01147)
[2] = target: CREB binding protein (mouse (endogenous in osteocyte-enriched calvarial cells)) (UniProt P45481)
[3] = target: signal transducer and activator of transcription 3 (mouse (endogenous in osteocyte-enriched calvarial cells)) (UniProt P42227)

| binding [1] | binding [2] | binding [3] | Binder |
| --- | --- | --- | --- |
| binds | binds |  | F-box and leucine-rich repeat protein 19 (protein, UniProt Q6PB97 1-674) MSSSSRGPGAGARRRRTRCRRCRACVRTECGDCHFCRDMKKFGGPGRMKQSCLLRQCTAPVLPHTAVCLLCGEAGKEDTVEGEDEKFSLSLMECTICNEIVHPGCLKMGKAEGVINSEIPNCWECPRCTQEGRTSKDAGEGPGRRRADNGEEGANLGGGWKLTEEPPPPPPLPRRKGPLPAGPTPDDVPGPPKRKEREGGNEPPTPRKKVKGGRERHLKKVGGDACLLRGADPGSPGLLPPRVLNPSQAFSSCHPGLPPENWEKPKPPIASAEGPAVPSPSPQREKLERFKRMCQLLERVPDTSSSSSDSDSDSDSSGTSLSEDEAPGEARNGRRPARGSSGEKENRGGRRAIRPGTGGPLLSWPLGPAPPPRPPQLERHVVRPPPRSPEPDTLPLAAGSDHPLPRAAWLRVFQHLGPRELCVCMRVCRTWSRWCYDKRLWPRMDLSRRKSLTPPMLSGVVRRQPRALDLSWTGVSKKQLMWLLNRLQGLQELVLSGCSWLSVSALGSAPLPALRLLDLRWIEDVKDSQLRELLLPPPDTKPGQTESRGRLQGVAELRLAGLELTDASLRLLLRHAPQLSALDLSHCAHVGDPSVHLLTAPTSPLRETLVHLNLAGCHRLTDHCLPLFRRCPRLRRLDLRSCRQLSPEACARLAAAGPPGPFRCPEEKLLLKDS |
|  |  | binds | PDZ and LIM domain 2 (protein, UniProt Q8R1G6 1-349) MALTVDVAGPAPWGFRISGGRDFHTPIIVTKVTERGKAEAADLRPGDIIVAINGQSAENMLHAEAQSKIRQSASPLRLQLDRSQTASPGQTNGEGSLEVLATRFQGSLRTHRDSQSSQRSACFSPVSLSPRPCSPFSTPPPTSPVALSKEDMIGCSFQSLTHSPGLAAAHHLTYPGHPTSQQAGHSSPSDSAVRVLLHSPGRPSSPRFSSLDLEEDSEVFKMLQENRQGRAAPRQSSSFRLLQEALEAEERGGTPAFVPSSLSSQASLPTSRALATPPKLHTCEKCSVNISNQAVRIQEGRYRHPGCYTCADCGLNLKMRGHFWVGNELYCEKHARQRYSMPGTLNSRA |
